The text below walks through data of patent publication US20260258428.

In series [1] the target is T1, Ara h 2 (Ara-H2 peanut allergen) (Arachis hypogaea) (UniProt Q6PSU2).
T1 sequence (limits assumed): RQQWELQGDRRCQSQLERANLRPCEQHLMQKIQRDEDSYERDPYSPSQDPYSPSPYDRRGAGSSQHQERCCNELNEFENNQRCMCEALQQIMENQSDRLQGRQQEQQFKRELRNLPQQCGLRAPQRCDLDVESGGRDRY
As to the kind of experiment: binding assay. To be noted: purified native protein, label: biotin, single-stranded DNA.

The target of series [2] is T1, Ara h 2 (Ara-H2 peanut allergen) (Arachis hypogaea). As to the kind of experiment: activity in cells. To be noted: purified native protein, single-stranded DNA.

Construct, isoform or probe ends are uncertain for at least one entry. For some of these results: A negative result means that nothing was seen under these conditions. Tags and fusion partners may be left off the protein sequences shown.

For the sequence “CATGGCGGGGGGGGGGGCAGAAGGGGGGGGGGGTGGTTTA [R2-11]”, the binding result in series [1] (ELISA on immobilized Ara-H2, 10 nM biotinylated aptamer, absorbance below R5-24 and R3-21) was “binds”. Further, in series [2] (5 uM aptamer inhibits degranulation of RBL-2H3 cells induced by crude peanut extract (not purified Ara-H2)), the “functional effect of the aptamer” value is listed as “active”.
Consider “CGTGGCGGGGGGGGGGGCAGAAGGGGGGGGGGGTGGATTA [R3-21]”, for which the binding result in series [1] (ELISA on immobilized Ara-H2, 10 nM biotinylated aptamer, absorbance below R5-24) is listed as “binds”. In series [2] (5 uM aptamer inhibits Ara-H2/IgE degranulation of RBL-2H3 cells, 37 C, also with crude peanut extract (FIGS. 4-5)), the “functional effect of the aptamer” value is “active”.
In the case of “TAGGGAAGAGAAGGACAATGATTTTGGGCGGGTTGAGGTGGGGGAGGAGGAGGTAGTTAGAGTTGACTAGTACATGACCACTTGA [SB3L]”, the binding result in series [1] (ELISA, little binding above background, non-specific control) is “no binding”.
Take “TGTAGCGGGGGGGGGGGCAGAAGGGGGGGGGGGTGGATTA [R5-24]”: in series [1] (ELISA on immobilized Ara-H2, 10 nM biotinylated aptamer, streptavidin-HRP, highest absorbance), the binding result is “binds”. Also, in series [2] (5 uM aptamer inhibits Ara-H2/IgE degranulation of RBL-2H3 cells, 37 C, also with crude peanut extract (FIG. 4)), the “functional effect of the aptamer” value is given as “active”.
